Data as given in PubChem BioAssay AID1259308 (NCATS, 2017)
This is a random part of about 59,000 reagents. About 1,510 of them (2.6%) were called active. 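Calls use total luciferase alone and ignore viability, so some active siRNAs may act by altering cell number.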 Reagents against one gene are numbered here. Not all columns of the deposit are shown.

Assay: 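Knock-downs that increase output of a recombinant reporter protein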 (primary screen)
Cells: human HEK293 embryonic kidney cells stably expressing firefly luciferase (HEK-CMV-Luc2-Hygro)
Knock-down reagent: single siRNA against human genes, 0.8 pmol siRNA per well
Duration: 72 h
Measurement: 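Reporter luminescence and viable-cell signal on separate replicate plates, given as percent of non-targeting control and median/MAD z-scores, plus per-cell luciferase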
Reading the numbers: total luciferase, z-score: higher = more reporter protein produced
Rule for the call: 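An siRNA counts as active if its total luciferase robust z-score exceeds 3; genes with two or more such siRNAs out of three were retested with fresh siRNAs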
Meaning of the calls: active = raised luciferase; inactive = no rise

HEXIM2 (HEXIM P-TEFb complex subunit 2) #1 | total luciferase, z-score = 0.198; call = inactive
HEXIM2 (HEXIM P-TEFb complex subunit 2) #2 | total luciferase, z-score = 1; call = inactive
HEXIM2 (HEXIM P-TEFb complex subunit 2) #3 | total luciferase, z-score = -0.358; call = inactive
SLC36A1 #1 | total luciferase, z-score = -2.33; call = inactive
SLC36A1 #2 | total luciferase, z-score = 0.739; call = inactive
SLC36A1 #3 | total luciferase, z-score = -0.147; call = inactive
SF3A2 (splicing factor 3a subunit 2) #1 | total luciferase, z-score = 0.951; call = inactive
SF3A2 (splicing factor 3a subunit 2) #2 | total luciferase, z-score = 2.22; call = inactive
SF3A2 (splicing factor 3a subunit 2) #3 | total luciferase, z-score = 4.81; call = active
ZNF239 (zinc finger protein 239) #1 | total luciferase, z-score = -1.42; call = inactive
ZNF239 (zinc finger protein 239) #2 | total luciferase, z-score = -0.0778; call = inactive
ZNF239 (zinc finger protein 239) #3 | total luciferase, z-score = 0.425; call = inactive
ARTN (artemin) #1 | total luciferase, z-score = -1.31; call = inactive
ARTN (artemin) #2 | total luciferase, z-score = -0.197; call = inactive
ARTN (artemin) #3 | total luciferase, z-score = -1.06; call = inactive
TOPORS #1 | total luciferase, z-score = 0.408; call = inactive
TOPORS #2 | total luciferase, z-score = -0.808; call = inactive
TOPORS #3 | total luciferase, z-score = 0.532; call = inactive
BCL7C (BAF chromatin remodeling complex subunit BCL7C) #1 | total luciferase, z-score = 0.252; call = inactive
BCL7C (BAF chromatin remodeling complex subunit BCL7C) #2 | total luciferase, z-score = -0.597; call = inactive
BCL7C (BAF chromatin remodeling complex subunit BCL7C) #3 | total luciferase, z-score = -0.0326; call = inactive
COLQ #1 | total luciferase, z-score = 0.191; call = inactive
COLQ #2 | total luciferase, z-score = 2.18; call = inactive
COLQ #3 | total luciferase, z-score = 0.209; call = inactive

5 entries already listed, arranged by “total luciferase, z-score”, descending.
COLQ #2 | total luciferase, z-score = 2.18; call = inactive
BCL7C (BAF chromatin remodeling complex subunit BCL7C) #1 | total luciferase, z-score = 0.252; call = inactive
COLQ #1 | total luciferase, z-score = 0.191; call = inactive
BCL7C (BAF chromatin remodeling complex subunit BCL7C) #3 | total luciferase, z-score = -0.0326; call = inactive
BCL7C (BAF chromatin remodeling complex subunit BCL7C) #2 | total luciferase, z-score = -0.597; call = inactive

Additional entries:
C8orf76 (chromosome 8 open reading frame 76) #1 | total luciferase, z-score = 0.227; call = inactive
C8orf76 (chromosome 8 open reading frame 76) #2 | total luciferase, z-score = 0.204; call = inactive
C8orf76 (chromosome 8 open reading frame 76) #3 | total luciferase, z-score = 2.44; call = inactive
AOC3 (amine oxidase copper containing 3) #1 | total luciferase, z-score = -0.685; call = inactive
AOC3 (amine oxidase copper containing 3) #2 | total luciferase, z-score = -1.27; call = inactive
AOC3 (amine oxidase copper containing 3) #3 | total luciferase, z-score = 0.37; call = inactive
SLC37A3 #1 | total luciferase, z-score = -0.418; call = inactive
SLC37A3 #2 | total luciferase, z-score = -0.609; call = inactive
SLC37A3 #3 | total luciferase, z-score = -0.932; call = inactive
HTR3E (5-hydroxytryptamine receptor 3E) #1 | total luciferase, z-score = -1.17; call = inactive
HTR3E (5-hydroxytryptamine receptor 3E) #2 | total luciferase, z-score = -0.853; call = inactive
HTR3E (5-hydroxytryptamine receptor 3E) #3 | total luciferase, z-score = 0.0583; call = inactive
SIMC1 (SUMO interacting motifs containing 1) #1 | total luciferase, z-score = 0.961; call = inactive
SIMC1 (SUMO interacting motifs containing 1) #2 | total luciferase, z-score = -0.0882; call = inactive
SIMC1 (SUMO interacting motifs containing 1) #3 | total luciferase, z-score = 0.0583; call = inactive
RAB8A (RAB8A, member RAS oncogene family) #1 | total luciferase, z-score = -0.332; call = inactive
RAB8A (RAB8A, member RAS oncogene family) #2 | total luciferase, z-score = -1.13; call = inactive
RAB8A (RAB8A, member RAS oncogene family) #3 | total luciferase, z-score = -0.359; call = inactive
